Results on three molecules are retold here after publication PMC8989081.

The chains behind the UniProt entries cited, without tags or fusion partners.
UniProt O96028: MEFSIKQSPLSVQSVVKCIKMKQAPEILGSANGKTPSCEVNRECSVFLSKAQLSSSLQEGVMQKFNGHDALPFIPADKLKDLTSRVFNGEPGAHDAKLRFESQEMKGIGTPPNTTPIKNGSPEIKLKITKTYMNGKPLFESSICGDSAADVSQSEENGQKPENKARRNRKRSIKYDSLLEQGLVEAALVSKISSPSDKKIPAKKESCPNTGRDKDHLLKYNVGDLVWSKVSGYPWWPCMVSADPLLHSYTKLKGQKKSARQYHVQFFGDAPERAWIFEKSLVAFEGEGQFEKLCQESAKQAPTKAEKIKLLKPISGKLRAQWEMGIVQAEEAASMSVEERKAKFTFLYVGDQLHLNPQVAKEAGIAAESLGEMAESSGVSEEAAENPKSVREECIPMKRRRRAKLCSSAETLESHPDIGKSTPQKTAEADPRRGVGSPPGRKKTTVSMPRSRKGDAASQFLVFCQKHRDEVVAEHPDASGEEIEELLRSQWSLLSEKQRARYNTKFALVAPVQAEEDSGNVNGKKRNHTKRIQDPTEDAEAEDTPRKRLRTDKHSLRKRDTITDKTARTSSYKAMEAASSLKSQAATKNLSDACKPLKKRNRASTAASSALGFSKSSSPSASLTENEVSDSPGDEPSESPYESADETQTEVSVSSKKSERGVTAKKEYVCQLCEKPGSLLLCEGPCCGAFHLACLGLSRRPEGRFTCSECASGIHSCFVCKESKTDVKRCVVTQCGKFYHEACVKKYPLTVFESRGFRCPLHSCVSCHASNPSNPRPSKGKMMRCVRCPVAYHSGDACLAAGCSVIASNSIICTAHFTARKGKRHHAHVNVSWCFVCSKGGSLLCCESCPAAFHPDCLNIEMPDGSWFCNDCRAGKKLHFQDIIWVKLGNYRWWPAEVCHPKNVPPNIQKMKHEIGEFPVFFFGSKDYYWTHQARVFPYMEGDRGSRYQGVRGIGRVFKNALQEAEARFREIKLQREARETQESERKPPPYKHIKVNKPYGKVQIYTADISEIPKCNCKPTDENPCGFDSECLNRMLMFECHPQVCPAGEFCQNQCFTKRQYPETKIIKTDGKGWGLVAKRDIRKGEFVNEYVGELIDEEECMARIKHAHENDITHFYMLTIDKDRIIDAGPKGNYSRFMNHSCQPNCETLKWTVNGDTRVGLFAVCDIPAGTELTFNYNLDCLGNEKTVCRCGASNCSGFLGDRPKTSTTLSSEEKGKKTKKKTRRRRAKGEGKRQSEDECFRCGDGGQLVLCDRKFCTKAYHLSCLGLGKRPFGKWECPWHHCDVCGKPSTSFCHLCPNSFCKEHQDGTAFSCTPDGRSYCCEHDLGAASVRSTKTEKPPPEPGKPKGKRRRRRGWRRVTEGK

Results are given in words; binding and its absence hold for the method and conditions named. Binding seen in cells or lysates may run through a third protein. Some entries that bind do so weakly or less than the wild type. For some of these results: Sequences can lack the tags named with a protein.

For one experiment, the target named is T1, Aurora A-Flag (UniProt O14965).
T1 sequence: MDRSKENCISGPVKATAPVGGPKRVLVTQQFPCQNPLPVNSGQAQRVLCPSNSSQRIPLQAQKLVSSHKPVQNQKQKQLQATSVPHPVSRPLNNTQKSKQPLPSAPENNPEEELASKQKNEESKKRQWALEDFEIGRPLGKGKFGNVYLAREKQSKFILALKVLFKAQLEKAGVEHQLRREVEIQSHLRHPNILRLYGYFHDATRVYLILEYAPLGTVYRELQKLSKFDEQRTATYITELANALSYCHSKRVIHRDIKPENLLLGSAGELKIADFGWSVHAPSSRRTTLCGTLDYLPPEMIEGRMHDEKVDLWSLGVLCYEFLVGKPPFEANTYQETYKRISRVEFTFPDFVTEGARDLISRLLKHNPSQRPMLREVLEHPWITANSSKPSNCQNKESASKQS
The experiment is described as follows: co-IP; exogenous tagged proteins in transfected HEK293T cells; NP-40 buffer; anti-FLAG M2 affinity gel; western blot; both tag arrangements.

For experiment [1], the target named is T2, GST-Aurora A fusion protein (UniProt O14965).
T2 sequence: T1 sequence
The experiment is described as follows: pull-down; GST-Aurora A from BL21 on glutathione agarose beads; HA-NSD2 from HEK-293T cells; blots with HA antibody and Aurora A antibody; only the target purified.

Experiment [2] concerns the target NSD2 (human (endogenous in LP-1 and MM.1S)) (UniProt O96028). The experiment is described as follows: co-IP; endogenous proteins in LP-1 and MM.1S cells; lysate supernatant in NP-40 buffer with the corresponding antibody, then protein G dynabeads, 4°C overnight; western blot. (In general: Immunoblotting shows a protein as a band on a membrane.)
For the next experiment, the target named is NSD2-Flag (UniProt O96028). In words: co-IP; exogenous tagged proteins in transfected HEK293T cells; NP-40 buffer; anti-FLAG M2 affinity gel; western blot; both tag arrangements.

For the molecule NSD2-HA (from UniProt O96028 1-1365), the binding result (with Aurora A-Flag; in experiment [1]) was “binds” in each case.

B1: Aurora kinase A (protein, UniProt O14965 1-403)
chain: T1 sequence
Regarding B1, in experiment [2], the binding entry was “binds”.

B2: Aurora A-HA (protein, UniProt O14965 1-403)
chain: T1 sequence
With B2, the binding entry with NSD2-Flag is given as “binds”.
